Source: paper PMC6302136, “Quantitative Chemotherapeutic Profiling of Gynecologic Cancer Cell Lines Using Approved Drugs and Bioactive Compounds^” (Translational Oncology, 2018)
Read-outs that look alike come from different tables or passages of the source.

What was measured:
[1] = tested on: 11 gynecologic cancer cell lines; assay: qHTS ATPlite cell viability, gynecologic cancer cell lines (ovarian, cervical, placental); type: cell-based, human; settings: toxic compounds, average over all cancer cell lines, mean ± S.D.
Procedure: (§1) The ATPlite luminescence assay system assay kit was used to determine cell viability. The reagent was reconstituted and prepared as described by the manufacturer. To measure the cell death caused by the compounds, cells were cultured in 4 μl of media for 16 hours at 37°C with 5% CO2 in assay plates, followed by the addition of DMSO or 16 SOC chemotherapeutic compounds dissolved in DMSO. SOC compounds were dosed at 11 concentrations (1:3 dilution) in quadruplicate from 57.5 μM to 0.977 nM using the automated Wako 1536 Pin Tool workstation and incubated at 37°C with 5% CO2 for 24, 48, or 72 hours. Four microliters of ATPlite, the ATP monitoring reagent, was then added to each well of the assay plates using the Multidrop Combi reagent dispenser followed by incubation for 15 minutes at room temperature. The resulting luminescence was measured using the ViewLux plate reader. Data were normalized for each drug using the largest luminescence value as 100% full cell viability (0% cell killing) and to the smallest luminescence value 0% viability (100% cell killing).
(§2) A qHTS [79], in which each compound was assayed in five concentrations (0.092, 0.46, 2.3, 11.5, and 57.5 μM), was performed for the primary compound screen using the NPC [80] and NPACT drug libraries at NCATS. […]

[2] = tested on: HEK 293T cells; set-up: method as in PMID 31498718; settings: independent screen, CellTiterGlo; cited from earlier work
[3] = tested on: HEK 293T cells; assay: cells; settings: Homo sapiens, 48 h, read-out: IC50 (HEK 293T toxicity)
Procedure: as §1, §2

Which IC50 ([1]; Homo sapiens, 48 h) does the source give for `O=C(CCCCCCC(=O)Nc1ccccc1)NO` [Vorinostat] here?
The IC50 was 5.5 ± 4.17 µM.

And the “Average SI” value ([1]; selectivity index vs HEK 293T)?
The value was 3.72 ± 2.24.

What about the IC50 [2] of the same molecule?
Its IC50 is 4.09 µM.

What about the IC50 [3] of the same molecule?
The IC50 was 11.3 µM.
